According to the supplement of paper PMC12889115:
This is one part of the list. Values are raw readings; no control value is given beside them.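 In the initial screen, polymyxin B was used at a concentration that permeabilizes Salmonella's outer membrane but not its inner membrane. Maximum growth was set by DMSO wells with or without polymyxin B. Since plates varied, data were ranked per plate, and compounds giving the lowest OD600 advanced as hits.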

Tested on: Salmonella enterica serovar Typhimurium SL1344
Assay: bacterial growth OD600 after 18 h with compound and polymyxin B; higher = more bacterial growth (less inhibition)
Details: 50 µM, Mueller-Hinton broth

## O=C(NCC1CCCCO1)c1coc(COc2cccc(C(F)(F)F)c2)n1 (stereo not drawn)
Polymyxin B 1 µg/mL
  bacterial growth OD600: 0.932

## Cc1nnc(-c2cccc(NC(=O)C3CCN(CCc4ccccc4)CC3)c2)s1
Polymyxin B 1 µg/mL
  bacterial growth OD600: 0.999

## COCCN1C(=O)CC(CC(=O)N2CCCC(COc3ccccc3C)C2)(c2ccccc2F)C1=O (stereo not drawn)
Polymyxin B 0.75 µg/mL
  bacterial growth OD600: 0.001

## CCC(O)C1CCN(C(=O)CC2(c3ccc(-c4ccccc4)cc3)CC(=O)N(C)C2=O)CC1 (stereo not drawn)
Polymyxin B 0.75 µg/mL
  bacterial growth OD600: 0.699

## COc1cc(-c2n[nH]cc2CN2CCC(C(O)c3cccs3)CC2)cc(OC)c1OC (stereo not drawn)
Polymyxin B 1 µg/mL
  bacterial growth OD600: 0.869

## COc1ccc(-c2noc(CN3CCC(O)(c4cccc(C(F)(F)F)c4)CC3)n2)cc1
Polymyxin B 1 µg/mL
  bacterial growth OD600: 0.007

## CSc1nc(C(=O)N2CCC(C3CCN(CC(C)C)CC3)C2)cs1 (stereo not drawn)
Polymyxin B 0.75 µg/mL
  bacterial growth OD600: 0.963

## CC#CCN1C(=O)NC(CCc2ccccc2)(C2CCN(Cc3cccc(OCCO)c3)CC2)C1=O (stereo not drawn)
Polymyxin B 0.75 µg/mL
  bacterial growth OD600: 0.978

## Cc1c(C(=O)NCC2OCCc3ccccc32)cnn1-c1ncc2c(n1)-c1ccccc1CCC2 (stereo not drawn)
Polymyxin B 0.75 µg/mL
  bacterial growth OD600: 0.004

## COc1ccc(CC(=O)N2CCC(N3CCC(C(=O)NC4CC4)CC3)CC2)cc1
Polymyxin B 1 µg/mL
  bacterial growth OD600: 0.884

## COc1ccc(CC2(CCC(=O)N3CCCC(C(=O)CC(C)C)C3)CCC(=O)N2)c2ccccc12 (stereo not drawn)
Polymyxin B 0.75 µg/mL
  bacterial growth OD600: 0.268

## COc1ccc(OC2CCN(C(=O)Cn3cc(NC(=O)CCc4ccccc4OC)cn3)CC2)cc1
Polymyxin B 0.75 µg/mL
  bacterial growth OD600: 0.781

## CCOc1ccc2nc(N3CCCC(C(=O)NCCc4nc(C)c5c(n4)CCCC5)C3)nc(C)c2c1 (stereo not drawn)
Polymyxin B 0.75 µg/mL
  bacterial growth OD600: 0.639

## COCCN(CC1CCCN(C2Cc3ccccc3C2)C1)C(=O)c1cc(C)nn1C (stereo not drawn)
Polymyxin B 0.75 µg/mL
  bacterial growth OD600: 0.87

## CCc1ccc(CN2CCCC(CO)(CCCc3ccccc3)C2)o1 (stereo not drawn)
Polymyxin B 0.75 µg/mL
  bacterial growth OD600: 0.773

## COC(=O)c1ccc(CN2CCOc3ccc(C(O)CCc4ccccc4)cc3C2)cc1 (stereo not drawn)
Polymyxin B 0.75 µg/mL
  bacterial growth OD600: 0

## CSCCC(=O)NC1CCCN(CCCc2ccccc2)C1 (stereo not drawn)
Polymyxin B 1 µg/mL
  bacterial growth OD600: 1.2

## CCOc1ccc2nc(N3CCCC3C(=O)NCc3c(C)nn(CC)c3C)nc(C)c2c1 (stereo not drawn)
Polymyxin B 0.75 µg/mL
  bacterial growth OD600: 1.01
